Some of the results follow.

The assay has as its target T1, OsSMF1 (Oryza sativa, UniProt Q6ZLB0 1-436).
T1 sequence: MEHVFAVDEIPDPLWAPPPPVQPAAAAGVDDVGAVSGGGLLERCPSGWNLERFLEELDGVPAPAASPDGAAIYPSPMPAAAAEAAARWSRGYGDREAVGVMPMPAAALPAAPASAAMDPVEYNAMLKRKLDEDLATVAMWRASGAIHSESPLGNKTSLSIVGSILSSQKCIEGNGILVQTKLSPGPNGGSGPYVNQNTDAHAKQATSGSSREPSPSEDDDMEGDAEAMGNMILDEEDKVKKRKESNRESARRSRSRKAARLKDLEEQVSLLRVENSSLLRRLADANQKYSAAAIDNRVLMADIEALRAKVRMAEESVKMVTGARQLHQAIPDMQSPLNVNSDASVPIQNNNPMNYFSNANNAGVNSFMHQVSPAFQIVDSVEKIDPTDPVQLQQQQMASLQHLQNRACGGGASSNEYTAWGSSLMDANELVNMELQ
Description: protein-binding microarray (RPBM); PBS, 2% BSA, 51.3 ng/ul salmon testes DNA, 50 uM zinc acetate, 200 nM TF, 25 C, 1 h; high values mean tight binding. The following applies: protein: recombinant; tags: N-terminal polyhistidine and DsRed monomer fusion (pET32a); chain copies: 2; label: CyDye5-dUTP incorporated in the synthesized complementary strand; 3' TTTTT single-stranded linker to array surface; dsDNA, one strand shown. The method in brief:
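The binding signal is fluorescence intensity per feature, in arbitrary units, read on an Axon 4000B scanner. Polyhistidine- and DsRed-tagged transcription factors (N-terminal fusions) from E. coli BL21-CodonPlus were purified on Ni–NTA and applied at 200 nM for 1 h at 25 °C to a double-stranded, BSA-blocked custom Agilent array in buffer with 50 µM zinc acetate.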
Consider “GCCCACCACCGCCATTCGCCACCACCTCGCCTCCGATTCACGGAGTCACCTAGTGCAG”, for which the binding signal is 3250 fluorescence intensity (a.u.).
As to “CTCGATTCTTCTGCAGCTGGGCGGGAGGGGAGGCGTGGCGCGGAGTCACCTAGTGCAG”, the binding signal is 3250 fluorescence intensity (a.u.).
Next, “TGAGATCTGACATCATCAAATGTTTAGTTAATCTACTGTTCGGAGTCACCTAGTGCAG”: 8070 fluorescence intensity (a.u.).
Next, “TGGCTGGCGTGTTCGCTTCCGGTGGTATCCACATCGCCCCCGGAGTCACCTAGTGCAG”: 3280 fluorescence intensity (a.u.); “TGACCACAGTGCTGACCTGTAGGAATCTGCCACGTGGCAGCGGAGTCACCTAGTGCAG”: 23200 fluorescence intensity (a.u.).
Next, “AAACAAAGCAAAGGAAGGTCAATGACAACGTGGGATTATTCGGAGTCACCTAGTGCAG”: 4340 fluorescence intensity (a.u.); “GGATTATCAGCACCTCGAAGTGGGGCGACAAGGTGGGATCCGGAGTCACCTAGTGCAG”: 34900 fluorescence intensity (a.u.).
Take “CTCGCCGGCCACGTCACCTGCCCTGTCTGTCGGTGCAACCCGGAGTCACCTAGTGCAG”: the binding signal was 15400 fluorescence intensity (a.u.).
Next, “CCCCACGTTCCGGTGGTGCCCACGCGTCATAGACGGTTAACGGAGTCACCTAGTGCAG”: 3460 fluorescence intensity (a.u.); “GTGCGCGCGCGCCGCCTGGCGCCACGCACGCCATGCACGCCGGAGTCACCTAGTGCAG”: 5210 fluorescence intensity (a.u.).
Next, “CCTCCGCCACACCCGCGCCACCCGCTCCCTTCGCCGGCTCCGGAGTCACCTAGTGCAG”: 3240 fluorescence intensity (a.u.); “GTCGCGCGCTTGGTGGCTTGCAAGAACCAGCTCCACCGCGCGGAGTCACCTAGTGCAG”: 3300 fluorescence intensity (a.u.); “CGTGGCCCACGTAAACGTCACGCTCACGTCTCCTTTACTCCGGAGTCACCTAGTGCAG”: 7390 fluorescence intensity (a.u.).
With “CTACACGTGATTCCAGCGTTGGAATCATCACGATTCTCGACGGAGTCACCTAGTGCAG”, the binding signal is 3660 fluorescence intensity (a.u.).
Regarding “AGCTAGGATGGTGCTGACGCTTAGGTTACAGTTTACTTTTCGGAGTCACCTAGTGCAG”, the binding signal is 6370 fluorescence intensity (a.u.).
With “GAAATCTGAACAACCAAGTTACTACTGTACTTATGTTAGTCGGAGTCACCTAGTGCAG”, the binding signal is 20700 fluorescence intensity (a.u.).
As to “ATTACACATTATTATCGGTTGCATGAAAATTAACCACATTCGGAGTCACCTAGTGCAG”, the binding signal is 27700 fluorescence intensity (a.u.).
In the case of “GGACTGCATGTGGAGGAGGGTGTTCATGGTGGCCAAGTCGCGGAGTCACCTAGTGCAG” it was 3400 fluorescence intensity (a.u.); in that of “TCCATTCAGCATGAATACGGTCTCACTAGAGACAACGTCACGGAGTCACCTAGTGCAG”, 4730 fluorescence intensity (a.u.).
In the case of “CCAAAGACGACCGGTAATGCCACGTTTCATTTAGTGGTTTCGGAGTCACCTAGTGCAG” it was 8720 fluorescence intensity (a.u.); in that of “GTGCTTTGATTCCGCACCACGTTGCACTGCACACAGACCTCGGAGTCACCTAGTGCAG”, 5920 fluorescence intensity (a.u.).
Consider “CGTGATAAAGTACTCCACGTTGACAGTGACAAGTACTCCACGGAGTCACCTAGTGCAG”, for which the binding signal is 6180 fluorescence intensity (a.u.).
Take “CTCAGTTAGTCCTCAGTGACCCACGTGCCTTTGAAGAATTCGGAGTCACCTAGTGCAG”: the binding signal was 3680 fluorescence intensity (a.u.).

The record behind these values is paper PMC7819943, “Rice protein-binding microarrays: a tool to detect cis-acting elements near promoter regions in rice”.
